These are yes or no findings as the source states them, for the method shown. In cells and extracts the contact can be indirect. Some binding calls cover weakened binding; strength is not graded here. Each block holds one binder with its values, some of them ahead of it.
Columns and labels:
[1] = biological target: T1, Activity-dependent neuroprotective protein (ADNP) (mouse (endogenous in mouse brain)) (UniProt Q9Z103); assay: co-IP; Co-IP-cross-link kit with ADNP, PSF and Brm antibodies; 500 µg nuclear cerebral cortex proteins (NE-PER kit) of 3-month-old male ADNP+/+ and ADNP+/− mice; two consecutive elutions
T1 sequence: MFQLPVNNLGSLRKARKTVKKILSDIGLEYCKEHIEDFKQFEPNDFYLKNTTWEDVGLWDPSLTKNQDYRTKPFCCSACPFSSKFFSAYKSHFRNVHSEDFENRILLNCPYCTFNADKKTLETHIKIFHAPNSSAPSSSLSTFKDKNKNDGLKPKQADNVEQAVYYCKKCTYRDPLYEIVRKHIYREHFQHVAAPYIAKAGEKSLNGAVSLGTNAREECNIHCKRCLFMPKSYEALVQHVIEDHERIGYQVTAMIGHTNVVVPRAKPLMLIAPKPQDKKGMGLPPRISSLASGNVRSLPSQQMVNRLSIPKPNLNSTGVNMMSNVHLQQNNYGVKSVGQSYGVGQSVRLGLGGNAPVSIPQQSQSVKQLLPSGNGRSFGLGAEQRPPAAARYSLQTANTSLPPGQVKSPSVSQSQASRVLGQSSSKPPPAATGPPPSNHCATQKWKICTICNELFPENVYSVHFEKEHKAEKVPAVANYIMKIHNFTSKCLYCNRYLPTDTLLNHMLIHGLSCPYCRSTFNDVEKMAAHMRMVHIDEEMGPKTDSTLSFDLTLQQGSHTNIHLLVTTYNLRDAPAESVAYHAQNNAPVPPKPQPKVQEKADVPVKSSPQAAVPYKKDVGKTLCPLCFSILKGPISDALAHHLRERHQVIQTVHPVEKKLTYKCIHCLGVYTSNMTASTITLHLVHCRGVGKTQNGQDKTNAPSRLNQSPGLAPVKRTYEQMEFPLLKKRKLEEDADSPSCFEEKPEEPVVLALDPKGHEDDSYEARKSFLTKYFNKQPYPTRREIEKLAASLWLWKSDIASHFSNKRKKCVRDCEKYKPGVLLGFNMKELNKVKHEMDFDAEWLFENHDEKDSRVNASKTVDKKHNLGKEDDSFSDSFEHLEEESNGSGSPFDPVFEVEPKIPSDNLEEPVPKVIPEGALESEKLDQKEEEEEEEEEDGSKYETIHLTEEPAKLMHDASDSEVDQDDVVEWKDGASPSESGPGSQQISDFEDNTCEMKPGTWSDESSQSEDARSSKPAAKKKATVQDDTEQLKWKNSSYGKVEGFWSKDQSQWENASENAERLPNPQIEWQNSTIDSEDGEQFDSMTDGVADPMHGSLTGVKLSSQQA

Chains of the proteins cited; added tags and fusions are not shown.
UniProt Q6DIC0: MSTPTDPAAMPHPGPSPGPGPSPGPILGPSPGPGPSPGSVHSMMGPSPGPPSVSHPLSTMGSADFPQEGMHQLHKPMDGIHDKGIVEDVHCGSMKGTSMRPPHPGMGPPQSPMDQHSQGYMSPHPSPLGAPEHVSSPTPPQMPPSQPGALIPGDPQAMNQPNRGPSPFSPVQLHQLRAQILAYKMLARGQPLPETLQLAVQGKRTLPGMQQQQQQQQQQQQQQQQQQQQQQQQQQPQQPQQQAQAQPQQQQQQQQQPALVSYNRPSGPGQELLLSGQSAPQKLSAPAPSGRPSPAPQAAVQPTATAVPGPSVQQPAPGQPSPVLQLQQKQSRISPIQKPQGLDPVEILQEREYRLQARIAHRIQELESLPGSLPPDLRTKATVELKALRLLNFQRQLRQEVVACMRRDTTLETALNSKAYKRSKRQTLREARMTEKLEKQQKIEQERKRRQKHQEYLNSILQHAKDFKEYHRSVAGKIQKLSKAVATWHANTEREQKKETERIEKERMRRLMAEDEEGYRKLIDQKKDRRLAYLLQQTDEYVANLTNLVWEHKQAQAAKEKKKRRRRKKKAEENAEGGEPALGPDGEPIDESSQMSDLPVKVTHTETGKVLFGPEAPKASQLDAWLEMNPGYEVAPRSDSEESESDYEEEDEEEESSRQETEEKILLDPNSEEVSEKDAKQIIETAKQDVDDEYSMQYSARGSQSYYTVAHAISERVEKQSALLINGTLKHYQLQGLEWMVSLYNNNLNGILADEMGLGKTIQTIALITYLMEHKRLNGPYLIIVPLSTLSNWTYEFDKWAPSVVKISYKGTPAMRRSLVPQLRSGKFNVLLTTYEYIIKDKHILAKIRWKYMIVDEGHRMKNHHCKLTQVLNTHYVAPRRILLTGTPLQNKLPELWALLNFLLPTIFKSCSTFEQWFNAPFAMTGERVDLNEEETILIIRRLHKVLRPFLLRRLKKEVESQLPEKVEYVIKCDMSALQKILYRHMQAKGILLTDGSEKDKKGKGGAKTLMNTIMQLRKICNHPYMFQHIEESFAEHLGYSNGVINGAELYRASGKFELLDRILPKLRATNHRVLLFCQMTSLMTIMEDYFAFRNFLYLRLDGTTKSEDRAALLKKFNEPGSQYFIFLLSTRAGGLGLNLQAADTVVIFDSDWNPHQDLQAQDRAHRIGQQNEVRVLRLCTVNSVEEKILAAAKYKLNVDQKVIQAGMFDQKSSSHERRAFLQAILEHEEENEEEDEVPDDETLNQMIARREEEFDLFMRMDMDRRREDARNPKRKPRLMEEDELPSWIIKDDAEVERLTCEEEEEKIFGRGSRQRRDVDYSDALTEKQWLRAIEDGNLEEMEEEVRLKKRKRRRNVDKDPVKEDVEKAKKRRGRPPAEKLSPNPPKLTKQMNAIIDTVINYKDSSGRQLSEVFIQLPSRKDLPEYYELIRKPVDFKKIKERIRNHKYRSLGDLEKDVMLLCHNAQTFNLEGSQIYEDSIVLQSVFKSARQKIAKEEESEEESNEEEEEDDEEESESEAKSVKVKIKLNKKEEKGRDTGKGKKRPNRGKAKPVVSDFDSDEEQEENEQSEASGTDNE

[2] = biological target: T2, polypyrimidine tract-binding protein (PTB)-associated splicing factor (PSF) (mouse (endogenous in mouse brain)) (UniProt Q8VIJ6); assay: as above
T2 sequence: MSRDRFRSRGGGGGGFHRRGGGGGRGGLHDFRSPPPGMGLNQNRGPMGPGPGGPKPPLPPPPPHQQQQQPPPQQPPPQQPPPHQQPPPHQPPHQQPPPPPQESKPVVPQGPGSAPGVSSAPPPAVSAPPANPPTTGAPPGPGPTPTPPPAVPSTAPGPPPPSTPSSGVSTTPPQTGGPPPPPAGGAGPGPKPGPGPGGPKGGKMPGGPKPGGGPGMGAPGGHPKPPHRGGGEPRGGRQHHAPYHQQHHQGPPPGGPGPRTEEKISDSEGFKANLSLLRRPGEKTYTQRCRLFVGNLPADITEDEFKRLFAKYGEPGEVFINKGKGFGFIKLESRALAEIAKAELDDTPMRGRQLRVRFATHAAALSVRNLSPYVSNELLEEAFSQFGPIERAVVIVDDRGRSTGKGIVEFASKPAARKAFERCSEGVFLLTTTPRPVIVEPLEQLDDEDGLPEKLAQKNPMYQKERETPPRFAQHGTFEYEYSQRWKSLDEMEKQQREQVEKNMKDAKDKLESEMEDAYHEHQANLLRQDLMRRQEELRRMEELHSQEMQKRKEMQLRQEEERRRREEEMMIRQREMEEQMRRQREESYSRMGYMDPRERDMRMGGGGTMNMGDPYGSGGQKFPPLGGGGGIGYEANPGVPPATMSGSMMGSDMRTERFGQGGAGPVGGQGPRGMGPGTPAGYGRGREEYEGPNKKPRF

[3] = biological target: Brahma (Brm) (mouse (endogenous in mouse brain)) (UniProt Q6DIC0); assay: as above
[4] = biological target: Brahma (Brm) (mouse (endogenous in mouse brain)) (UniProt Q6DIC0); assay: co-IP; nuclear-enriched fraction of thalamus and subthalamic nucleus of 11-month-old C57BL/129 male mice, extraction buffer with 150 mM NaCl, rabbit anti-hBrm/hSNF2α, Protein A/G PLUS-Agarose beads, 4°C; reducing sample buffer; blots for ADNP and Brm
[5] = biological target: T2, polypyrimidine tract-binding protein (PTB)-associated splicing factor (PSF) (mouse (endogenous in mouse brain)); assay: co-IP; Co-IP-cross-link kit (Pierce), antibody (PSF or ADNP) cross-linked to A/G agarose with DSS; 500 µg nuclear-enriched fraction of cerebellum of 8-month-old C57BL/129 male mice (thalamus and subthalamic nuclei for the PSF IP blotted for ADNP), 150 mM NaCl, 16 hours, 4°C; non-reducing loading

binding [1]: binds
B1: polypyrimidine tract-binding protein (PTB)-associated splicing factor (PSF) (protein, UniProt Q8VIJ6 1-699)
chain: T2 sequence

binding [2]: binds
binding [3]: binds
binding [4]: binds
binding [5]: binds
B2: Activity-dependent neuroprotective protein (ADNP) (protein, UniProt Q9Z103 1-1108)
chain: T1 sequence

Reference: article PMC3906161
